These are yes or no findings as the source states them, for the method shown. Some binding calls cover weakened binding; strength is not graded here.
What was measured:
[1] = target: AtCCA1 (… CLOCK-ASSOCIATED 1) (Arabidopsis thaliana) (UniProt P92973); test: two-hybrid; Matchmaker Y2H system (Clontech), Y2HGold yeast co-transfected with pGBKT7 and pGADT7 fusions; quadruple dropout medium (lacking tryptophan, leucine, histidine, adenine) with 150 ng/ml aureobasidin A and X-alpha-Gal (40 ug/ml)
[2] = target: AtLHY (LATE ELONGATED HYPOCOTYL) (Arabidopsis thaliana) (UniProt Q6R0H1); test: as above

B1: AtLHY (LATE ELONGATED HYPOCOTYL) (protein, UniProt Q6R0H1 1-645)
chain: MDTNTSGEELLAKARKPYTITKQRERWTEDEHERFLEALRLYGRAWQRIEEHIGTKTAVQIRSHAQKFFTKLEKEAEVKGIPVCQALDIEIPPPRPKRKPNTPYPRKPGNNGTSSSQVSSAKDAKLVSSASSSQLNQAFLDLEKMPFSEKTSTGKENQDENCSGVSTVNKYPLPTKQVSGDIETSKTSTVDNAVQDVPKKNKDKDGNDGTTVHSMQNYPWHFHADIVNGNIAKCPQNHPSGMVSQDFMFHPMREETHGHANLQATTASATTTASHQAFPACHSQDDYRSFLQISSTFSNLIMSTLLQNPAAHAAATFAASVWPYASVGNSGDSSTPMSSSPPSITAIAAATVAAATAWWASHGLLPVCAPAPITCVPFSTVAVPTPAMTEMDTVENTQPFEKQNTALQDQNLASKSPASSSDDSDETGVTKLNADSKTNDDKIEEVVVTAAVHDSNTAQKKNLVDRSSCGSNTPSGSDAETDALDKMEKDKEDVKETDENQPDVIELNNRKIKMRDNNSNNNATTDSWKEVSEEGRIAFQALFARERLPQSFSPPQVAENVNRKQSDTSMPLAPNFKSQDSCAADQEGVVMIGVGTCKSLKTRQTGFKPYKRCSMEVKESQVGNINNQSDEKVCKRLRLEGEAST
For B1, the binding [1] was “binds” and the binding [2] was “binds weakly”.
